# Data taken from PubChem BioAssay AID504834 (National Center for Advancing Translational Sciences (NCATS), 2011).
# Screen size: about 320,000 compounds; about 22,000 (6.9%) were called active. The inconclusive results got no clear call from the source; some entries with a clear call stand among them for comparison. The call rests on the fitted dose curve; in most records, active means well fitted inhibition curve with a large enough effect; inconclusive means small, poorly fitted or top-dose-only effect, or another doubt; inactive means no such curve, though single readings can be large or run the other way. Where the call is inconclusive, the potency comes from a doubtful curve fit.
# Test: Primary qHTS for delayed death inhibitors of the malarial parasite plastid, 96 hour incubation
# Settings: P. falciparum luciferase reporter growth; series mostly up to 28.7 µM
# Summary of the method: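 Infected RBCs, 2% Hct / 0.05% parasitemia final; luciferase-reporter P. falciparum; cpd 96 h, 37 C, 5% CO2; luciferase detection reagent; luminescence.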
# On the % scale 0 is the no-effect control and ±100 the full control effect; potency means the concentration at half of the fitted maximal effect.
Structure (SMILES),Potency,"activity change, negative = inhibition"
Cn1nnc(NC(=O)c2cccc([N+](=O)[O-])c2)n1,inactive,
COC(=O)c1cn(NC(=O)C2CCC(C)CC2)c(=O)c2ccccc12 (stereo unspecified),"inconclusive: 0.828 µM [inhibitor, full curve]",
O=C(c1cn(Cc2ccccc2)nc1-c1cccnc1)N1CCc2ccccc2C1,active: 13.1 µM,
O=C(NS(=O)(=O)Oc1ccc(F)c(Cl)c1)OC[C@@H]1CCCN2CCCCC12 (stereo partly specified),"inconclusive: 2.62 µM [inhibitor, single point]",
CCCCN(C)C(=O)c1nc2ccccn2c1CN1CCN(c2cnccn2)CC1,"inconclusive: 10.4 µM [inhibitor, single point]",
CCC(C)NC(=O)c1cc2c(=O)n3ccccc3nc2s1 (stereo unspecified),"inconclusive: 4.15 µM [inhibitor, partial curve]",
Cc1c(C(=O)N/N=C/c2ccc(Cl)cc2)[nH]c2ccc(Cl)cc12,"inconclusive: 20.8 µM [inhibitor, partial curve, poor fit]",
Cc1cccc(C(O)(C(=O)NNC(=O)CN2CCN(C)CC2)c2cccc(C)c2)c1,"inconclusive: 18.5 µM [inhibitor, single point]",
Cn1cc(NC(=O)Nc2ccc(C(F)(F)F)cc2)c(C(F)(F)F)n1,"inconclusive: 10.4 µM [inhibitor, partial curve, poor fit]",
CC1(C)CC(=O)C(C=NCCN2CCN(C(=S)Nc3cccc(Cl)c3)CC2)=C(O)C1,"inconclusive: 18.5 µM [inhibitor, single point]",
CC(C)COP(=O)(OCC(C)C)C(O)c1ccc(F)cc1 (stereo unspecified),"inconclusive: 1.04 µM [inhibitor, partial curve, poor fit]",
COc1ccc(-n2c(SCC(=O)O)nc3sc4c(c3c2=O)CCC4)cc1,"inconclusive: 9.28 µM [inhibitor, partial curve]",
Nc1nc(-c2ccco2)nn1S(=O)(=O)c1ccc(Cl)cc1,inactive,
C=CCn1c(-c2ccccc2[N+](=O)[O-])n[nH]c1=S,"inconclusive: 3.7 µM [inhibitor, partial curve, poor fit]",
COc1ccc(C2CNC(=O)C2)cc1OC1CCCC1 (stereo unspecified),"inconclusive: 18.5 µM [inhibitor, single point]",
CCC(C)NC(=O)CNC(=O)c1nn(-c2ccc(OC)c(Cl)c2)c(=O)c2ccccc12 (stereo unspecified),inactive,
CCOC(=O)C1=C(C)NC(C)=C(C(=O)OCC)C1C(=O)OCC(=O)c1ccc2c(c1)OCCO2,inactive,
Cc1ccccc1C(=O)NN1CCOCC1,"inconclusive: 0.828 µM [inhibitor, partial curve, poor fit]",
CCn1c(SCC(=O)N2CCN(c3ccc(F)cc3)CC2)nnc1-c1ccncc1,"inconclusive: 18.5 µM [inhibitor, single point]",
Cc1noc(C)c1S(=O)(=O)NCCCN1CCN(Cc2ccccc2)CC1,active: 4.65 µM,
O=C1/C(=C/c2ccccn2)SC(=S)N1N1CCOCC1,inactive,
CC(NC(=O)c1ccc(CS(C)(=O)=O)cc1)C1CC2CCC1C2 (stereo unspecified),inactive,
CCOc1ccccc1N1CCN(C(=O)C(F)(F)F)CC1,inactive,
Cc1ccc(/C([O-])=C(/C(=S)NCc2ccco2)[n+]2ccccc2)cc1[N+](=O)[O-],"inconclusive: 14.7 µM [inhibitor, partial curve, poor fit]",

# Quoted at random: 2 compounds from above, in no set order.
Structure (SMILES),Potency,"activity change, negative = inhibition"
O=C(NS(=O)(=O)Oc1ccc(F)c(Cl)c1)OC[C@@H]1CCCN2CCCCC12 (stereo partly specified),"inconclusive: 2.62 µM [inhibitor, single point]",
O=C1/C(=C/c2ccccn2)SC(=S)N1N1CCOCC1,inactive,

# Next entries follow.

Structure (SMILES),Potency,"activity change, negative = inhibition"
CC[n+]1c(-c2ccc(C)cc2)csc1Nc1c(C)n(C)n(-c2ccccc2)c1=O,"inconclusive: 11.7 µM [inhibitor, single point]",
COc1ccc(NC(=S)N(CCCN2CCOCC2)Cc2cn(C)c3ccccc23)cc1,"inconclusive: 9.28 µM [inhibitor, single point]",
CCc1sc(C(=O)N2CCc3cc(OC)c(OC)cc3C2CC(=O)O)cc1C (stereo unspecified),"inconclusive: 18.5 µM [inhibitor, single point]",
O=C(NCCO)c1cc2c([nH]c3ccccc32)c(-c2ccc(F)cc2)n1,active: 14.7 µM,
O=C(CN1CCC(n2nnc3cc(F)ccc32)CC1)Nc1ccc2c(c1)CCC2,"inconclusive: 18.5 µM [inhibitor, single point]",
COc1ccc(Cl)cc1NC(=O)CN(C)C(=O)CCNC(=O)c1ccccc1OC,"inconclusive: 18.5 µM [inhibitor, single point]",
Cc1ccc(N=Nc2c(N)nn(-c3ccccc3)c2N)cc1,inactive,
COCCNC(=S)Nc1ccccc1Cc1ccccc1,"inconclusive: 10.4 µM [inhibitor, single point]",
CC(=O)N[C@@H]1C(O)OC(CO)C(O)C1O (stereo partly specified),inactive,
O=C(CCCn1c(SCC(=O)c2ccc(F)cc2)nc2ccccc2c1=O)NCc1ccco1,"inconclusive: 10.4 µM [inhibitor, single point]",
CCc1cc2c(C)cc(C)cc2nc1SCC(=O)Nc1cc(C)on1,inactive,
O=C(CCS(=O)(=O)c1ccc(Cl)cc1)Nc1nccs1,"inconclusive: 3.7 µM [inhibitor, full curve]",
CCCCCCc1ccc(N2C[C@H](C)[C@@H](CC(=O)NCc3ccccc3)C2=O)cc1,"inconclusive: 18.5 µM [inhibitor, single point]",
CCOc1cc(S(=O)(=O)N(CC)CC)c(OCC)cc1-n1cnnn1,inactive,
Cc1cc(C=O)c(C)n1-c1cccc(C(=O)O)c1,inactive,
Cc1cc(/N=C/C=C2\N(C)c3ccccc3C2(C)C)n(CCC#N)n1,,inactive: 13.5% [at 5.75 µM]
N#Cc1c(/N=C/C2C(=O)NC(=S)NC2=O)sc2c1CCCC2,inactive,
COc1ccc(OC)c(-n2nnnc2SCC(=O)Nc2cc(C)ccc2OC)c1,"inconclusive: 5.22 µM [inhibitor, single point]",
CSc1ccc(S(=O)(=O)N2c3ccccc3CC2C)cc1 (stereo unspecified),inactive,
Cc1ccc2nc(SCC(=O)Nc3cc([N+](=O)[O-])ccc3F)[nH]c2c1,inactive,
Cc1ccc(C)c(Cc2c(C)nc3c(C(=O)NCc4ccc5c(c4)OCO5)cnn3c2C)c1,active: 10.4 µM,
Cc1ccc(C(=O)N2CCC3(CC2)Oc2ccc(Cl)cc2C(=O)C32CC(c3cccnc3)=NO2)s1 (stereo unspecified),active: 13.1 µM,
CC(Sc1nncn1-c1ccccc1)C(=O)Nc1cccc([N+](=O)[O-])c1 (stereo unspecified),inactive,
COc1ccc(/C=N/NC(=O)c2ccc3c(c2)OCCO3)c(OC)c1,"inconclusive: 20.8 µM [inhibitor, partial curve, poor fit]",

Structure (SMILES),Potency,"activity change, negative = inhibition"
c1ccc(-n2nnnc2Oc2ccc(-n3ccnc3)cc2)cc1,"inconclusive: 0.522 µM [inhibitor, full curve, poor fit]",
CC(=O)NC(CC(=O)OCC(=O)c1ccc(NC(=O)CC(C)C)cc1)c1ccccc1 (stereo unspecified),inactive,
O=C1CCC(=O)N1CNc1ccc(Oc2ccccc2)cc1,inactive,
CC1CCN(S(=O)(=O)c2ccc3c(c2)CCC(=O)N3CC(=O)Nc2cccc(C#N)c2)CC1,"inconclusive: 2.62 µM [inhibitor, partial curve]",
C=CCNc1nc2c(c(=O)[nH]c(=O)n2C)n1CCCc1ccccc1,"inconclusive: 18.5 µM [inhibitor, single point]",
Cc1ccc(C2=NN(CCC(=O)NCc3ccc4c(c3)OCO4)C(=O)CC2)cc1,"inconclusive: 11.7 µM [inhibitor, partial curve, poor fit]",
O=C1CC(c2ccc(O)c(O)c2)Oc2cc(O)cc(O)c21 (stereo unspecified),"inconclusive: 13.1 µM [inhibitor, single point]",
COc1ccccc1/C=N\Nc1cc(C)nc(-n2nc(C)cc2C)n1,"inconclusive: 0.329 µM [inhibitor, full curve, poor fit]",
CCN(CC)S(=O)(=O)c1cccc(C(=O)N/N=C2\CC(=O)CC(C)(C)C2)c1,"inconclusive: 9.28 µM [inhibitor, single point]",
Cc1nnc(SCC(=O)Nc2nsc(-c3ccc(C(C)(C)C)cc3)n2)s1,"inconclusive: 9.28 µM [inhibitor, partial curve, poor fit]",
Cc1ccc(CNc2cccnc2)cc1,inactive,
Nc1nnc(SCC(=O)Nc2cc(S(=O)(=O)N3CCOCC3)ccc2N2CCCC2)s1,"inconclusive: 18.5 µM [inhibitor, single point]",
CCOc1ccc(N(CC(=O)Nc2ccc(C)cc2)S(C)(=O)=O)cc1,"inconclusive: 11.7 µM [inhibitor, partial curve, poor fit]",
CCOC(=O)CSc1nc2cc3c(cc2cc1C#N)OCO3,inactive,
COc1ccc(S(=O)(=O)Nc2cc3c4c(c2)CCN4C(=O)CC3)cc1,"inconclusive: 10.4 µM [inhibitor, single point]",
COc1ccc(C(=O)COC(=O)Cn2c(C)csc2=O)c(OC)c1,inactive,
CCC1CN(C(=O)N2CCC(C(=O)NCc3ccccc3C)CC2)c2ccccc2O1 (stereo unspecified),"inconclusive: 18.5 µM [inhibitor, single point]",
Nc1nc(Nc2ccccc2)nc(NC2CCCCC2)c1[N+](=O)[O-],active: 13.1 µM,
COc1nsnc1N1CCOCC1,"inconclusive: 18.5 µM [inhibitor, single point]",
CC(C)OCCCNc1ncnc2c1[nH]c1ccccc12,"inconclusive: 2.62 µM [inhibitor, full curve, poor fit]",
CC(C)Cn1c(-c2ccc(C#N)cc2)nc2c1c(=O)[nH]c(=O)n2CC(C)C,active: 10.4 µM,
O=C(CSc1ccc2nnc(-c3ccccn3)n2n1)Nc1ccccc1,"inconclusive: 4.15 µM [inhibitor, full curve, poor fit]",
Oc1c(C(Nc2cccc(C(F)(F)F)c2)c2ccncc2)ccc2cccnc12 (stereo unspecified),"inconclusive: 18.5 µM [inhibitor, single point]",
